Some of the results follow.

Protein sequences, listed by entry. Tags and fused reporters are not part of them. Lines headed by an entry give the natural chain unless they say otherwise; changes in a name come on top.
UniProt Q8TE02: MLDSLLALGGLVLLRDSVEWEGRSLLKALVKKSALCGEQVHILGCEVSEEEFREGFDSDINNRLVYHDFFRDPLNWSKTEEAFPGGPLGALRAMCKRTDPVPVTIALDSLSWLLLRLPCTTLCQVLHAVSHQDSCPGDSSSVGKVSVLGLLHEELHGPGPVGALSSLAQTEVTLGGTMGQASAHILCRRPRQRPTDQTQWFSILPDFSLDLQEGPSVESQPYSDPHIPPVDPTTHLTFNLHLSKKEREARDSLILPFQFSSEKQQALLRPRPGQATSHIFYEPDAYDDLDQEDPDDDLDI
UniProt Q9H0I2: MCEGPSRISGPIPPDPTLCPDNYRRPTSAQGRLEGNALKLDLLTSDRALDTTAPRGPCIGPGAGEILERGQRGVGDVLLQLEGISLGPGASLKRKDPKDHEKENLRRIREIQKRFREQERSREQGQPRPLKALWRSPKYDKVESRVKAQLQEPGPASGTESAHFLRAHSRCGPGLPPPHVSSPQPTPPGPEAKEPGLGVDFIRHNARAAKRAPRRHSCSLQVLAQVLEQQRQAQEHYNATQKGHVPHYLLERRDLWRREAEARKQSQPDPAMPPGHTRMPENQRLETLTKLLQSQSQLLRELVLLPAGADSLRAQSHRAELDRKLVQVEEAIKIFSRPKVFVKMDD
UniProt Q5JPI9: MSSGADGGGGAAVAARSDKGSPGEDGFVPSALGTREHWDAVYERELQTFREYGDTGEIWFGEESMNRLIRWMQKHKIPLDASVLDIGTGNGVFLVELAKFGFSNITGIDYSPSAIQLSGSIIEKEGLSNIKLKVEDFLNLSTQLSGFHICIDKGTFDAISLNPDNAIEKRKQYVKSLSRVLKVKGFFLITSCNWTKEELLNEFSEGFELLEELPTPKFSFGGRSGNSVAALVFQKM
UniProt Q9NZJ5: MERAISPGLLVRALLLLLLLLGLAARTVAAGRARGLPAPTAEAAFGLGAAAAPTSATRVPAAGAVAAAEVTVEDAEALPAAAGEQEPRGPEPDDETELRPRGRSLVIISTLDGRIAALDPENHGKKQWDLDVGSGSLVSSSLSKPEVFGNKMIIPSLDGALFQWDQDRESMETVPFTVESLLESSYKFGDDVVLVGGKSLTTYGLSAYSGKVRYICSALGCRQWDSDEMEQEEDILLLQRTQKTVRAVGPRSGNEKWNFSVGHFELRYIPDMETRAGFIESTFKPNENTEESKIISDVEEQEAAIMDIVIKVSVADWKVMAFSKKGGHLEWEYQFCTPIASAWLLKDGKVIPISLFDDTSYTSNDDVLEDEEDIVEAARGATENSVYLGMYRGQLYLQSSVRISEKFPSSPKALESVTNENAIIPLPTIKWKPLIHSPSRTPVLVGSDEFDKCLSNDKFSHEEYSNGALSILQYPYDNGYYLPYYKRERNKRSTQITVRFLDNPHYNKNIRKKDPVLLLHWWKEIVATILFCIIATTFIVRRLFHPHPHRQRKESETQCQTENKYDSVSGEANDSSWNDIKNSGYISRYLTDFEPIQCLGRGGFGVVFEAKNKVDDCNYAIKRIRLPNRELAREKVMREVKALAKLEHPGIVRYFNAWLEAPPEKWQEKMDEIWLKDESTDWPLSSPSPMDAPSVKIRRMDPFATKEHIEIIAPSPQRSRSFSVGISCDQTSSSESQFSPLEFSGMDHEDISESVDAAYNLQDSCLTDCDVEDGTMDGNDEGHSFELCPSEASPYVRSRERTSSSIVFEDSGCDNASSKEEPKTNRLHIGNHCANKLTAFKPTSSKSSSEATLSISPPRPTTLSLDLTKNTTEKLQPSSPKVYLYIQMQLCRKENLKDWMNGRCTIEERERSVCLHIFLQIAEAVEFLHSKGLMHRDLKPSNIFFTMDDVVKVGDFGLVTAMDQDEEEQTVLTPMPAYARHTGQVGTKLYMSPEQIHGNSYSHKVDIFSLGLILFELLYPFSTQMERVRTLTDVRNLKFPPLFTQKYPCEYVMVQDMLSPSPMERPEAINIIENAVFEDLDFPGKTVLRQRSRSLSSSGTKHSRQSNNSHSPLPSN
UniProt Q9H4G0, whole entry, looked up: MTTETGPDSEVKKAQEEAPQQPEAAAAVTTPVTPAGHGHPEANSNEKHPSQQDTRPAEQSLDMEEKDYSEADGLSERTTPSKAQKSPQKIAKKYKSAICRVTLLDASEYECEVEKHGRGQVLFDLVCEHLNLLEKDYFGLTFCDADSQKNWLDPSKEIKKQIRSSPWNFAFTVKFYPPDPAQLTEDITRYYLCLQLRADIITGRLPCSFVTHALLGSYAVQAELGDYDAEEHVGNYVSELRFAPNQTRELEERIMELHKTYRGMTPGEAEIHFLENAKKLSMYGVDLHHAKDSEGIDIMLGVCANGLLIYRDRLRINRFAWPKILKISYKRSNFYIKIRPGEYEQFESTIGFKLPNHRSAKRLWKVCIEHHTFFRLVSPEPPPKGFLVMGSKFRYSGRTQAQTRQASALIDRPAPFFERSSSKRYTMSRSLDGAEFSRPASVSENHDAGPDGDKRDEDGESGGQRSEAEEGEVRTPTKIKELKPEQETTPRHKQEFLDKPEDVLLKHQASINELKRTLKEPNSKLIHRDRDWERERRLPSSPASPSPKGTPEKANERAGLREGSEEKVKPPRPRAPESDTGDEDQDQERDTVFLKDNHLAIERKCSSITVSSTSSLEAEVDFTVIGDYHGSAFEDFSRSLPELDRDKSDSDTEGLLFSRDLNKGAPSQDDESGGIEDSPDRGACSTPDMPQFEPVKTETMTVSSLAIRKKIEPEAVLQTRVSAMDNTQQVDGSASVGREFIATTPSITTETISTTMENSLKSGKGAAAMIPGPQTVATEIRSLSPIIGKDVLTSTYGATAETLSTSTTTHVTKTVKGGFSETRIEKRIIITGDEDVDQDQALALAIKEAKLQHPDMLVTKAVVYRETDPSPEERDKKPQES
UniProt P29692: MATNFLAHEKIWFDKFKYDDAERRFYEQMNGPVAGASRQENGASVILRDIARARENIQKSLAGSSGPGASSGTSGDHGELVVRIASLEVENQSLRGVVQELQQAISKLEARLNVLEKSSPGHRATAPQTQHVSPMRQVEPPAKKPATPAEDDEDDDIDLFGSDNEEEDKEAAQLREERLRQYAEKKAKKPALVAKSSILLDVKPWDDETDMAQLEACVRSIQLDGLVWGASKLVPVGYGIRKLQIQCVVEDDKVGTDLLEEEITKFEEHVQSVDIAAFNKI
UniProt A1L3X0: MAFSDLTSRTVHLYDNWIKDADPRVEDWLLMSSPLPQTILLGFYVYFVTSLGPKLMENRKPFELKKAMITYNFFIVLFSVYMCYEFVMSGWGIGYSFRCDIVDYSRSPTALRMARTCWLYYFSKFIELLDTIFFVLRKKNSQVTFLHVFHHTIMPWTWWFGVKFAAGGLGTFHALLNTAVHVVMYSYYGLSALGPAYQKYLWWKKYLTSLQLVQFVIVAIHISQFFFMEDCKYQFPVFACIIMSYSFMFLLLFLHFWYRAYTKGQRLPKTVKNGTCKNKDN
UniProt Q96C92: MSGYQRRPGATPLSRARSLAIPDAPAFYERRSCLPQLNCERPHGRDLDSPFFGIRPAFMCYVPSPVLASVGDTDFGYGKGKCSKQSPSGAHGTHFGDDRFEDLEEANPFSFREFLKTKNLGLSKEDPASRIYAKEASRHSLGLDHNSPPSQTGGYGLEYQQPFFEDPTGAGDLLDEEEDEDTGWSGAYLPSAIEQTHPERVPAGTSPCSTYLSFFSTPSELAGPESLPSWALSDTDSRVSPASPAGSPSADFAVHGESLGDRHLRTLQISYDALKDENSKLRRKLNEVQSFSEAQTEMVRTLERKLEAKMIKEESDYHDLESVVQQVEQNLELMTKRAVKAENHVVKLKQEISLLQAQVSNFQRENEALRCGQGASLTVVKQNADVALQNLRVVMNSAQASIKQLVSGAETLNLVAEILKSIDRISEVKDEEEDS
UniProt Q9UI10, whole entry, looked up: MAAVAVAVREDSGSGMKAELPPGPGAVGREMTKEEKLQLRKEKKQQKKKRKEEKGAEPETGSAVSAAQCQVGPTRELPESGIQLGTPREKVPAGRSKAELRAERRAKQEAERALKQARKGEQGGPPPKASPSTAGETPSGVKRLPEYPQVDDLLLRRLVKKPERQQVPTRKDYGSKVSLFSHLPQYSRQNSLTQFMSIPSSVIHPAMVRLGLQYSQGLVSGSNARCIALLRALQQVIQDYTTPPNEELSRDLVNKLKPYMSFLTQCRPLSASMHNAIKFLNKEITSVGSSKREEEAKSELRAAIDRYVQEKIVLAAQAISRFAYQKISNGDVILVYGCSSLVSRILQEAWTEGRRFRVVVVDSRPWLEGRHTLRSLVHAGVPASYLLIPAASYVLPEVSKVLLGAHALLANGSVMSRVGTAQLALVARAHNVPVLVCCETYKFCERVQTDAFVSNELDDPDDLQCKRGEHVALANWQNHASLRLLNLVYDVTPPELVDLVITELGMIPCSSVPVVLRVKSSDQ
UniProt Q8N5X7: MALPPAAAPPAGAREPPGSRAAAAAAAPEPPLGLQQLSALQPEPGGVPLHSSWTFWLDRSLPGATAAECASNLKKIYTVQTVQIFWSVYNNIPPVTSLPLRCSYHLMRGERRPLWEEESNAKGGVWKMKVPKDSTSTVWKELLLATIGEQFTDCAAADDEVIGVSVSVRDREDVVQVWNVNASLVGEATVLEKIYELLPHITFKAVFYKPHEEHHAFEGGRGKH
UniProt Q5VUJ9: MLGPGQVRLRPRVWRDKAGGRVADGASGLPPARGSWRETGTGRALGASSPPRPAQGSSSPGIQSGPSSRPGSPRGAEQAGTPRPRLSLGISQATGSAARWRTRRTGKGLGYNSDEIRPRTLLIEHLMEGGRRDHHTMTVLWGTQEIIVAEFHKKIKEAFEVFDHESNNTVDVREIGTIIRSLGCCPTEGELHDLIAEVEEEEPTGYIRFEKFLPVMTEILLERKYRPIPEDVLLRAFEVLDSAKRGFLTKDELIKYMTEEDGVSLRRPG
UniProt O00418: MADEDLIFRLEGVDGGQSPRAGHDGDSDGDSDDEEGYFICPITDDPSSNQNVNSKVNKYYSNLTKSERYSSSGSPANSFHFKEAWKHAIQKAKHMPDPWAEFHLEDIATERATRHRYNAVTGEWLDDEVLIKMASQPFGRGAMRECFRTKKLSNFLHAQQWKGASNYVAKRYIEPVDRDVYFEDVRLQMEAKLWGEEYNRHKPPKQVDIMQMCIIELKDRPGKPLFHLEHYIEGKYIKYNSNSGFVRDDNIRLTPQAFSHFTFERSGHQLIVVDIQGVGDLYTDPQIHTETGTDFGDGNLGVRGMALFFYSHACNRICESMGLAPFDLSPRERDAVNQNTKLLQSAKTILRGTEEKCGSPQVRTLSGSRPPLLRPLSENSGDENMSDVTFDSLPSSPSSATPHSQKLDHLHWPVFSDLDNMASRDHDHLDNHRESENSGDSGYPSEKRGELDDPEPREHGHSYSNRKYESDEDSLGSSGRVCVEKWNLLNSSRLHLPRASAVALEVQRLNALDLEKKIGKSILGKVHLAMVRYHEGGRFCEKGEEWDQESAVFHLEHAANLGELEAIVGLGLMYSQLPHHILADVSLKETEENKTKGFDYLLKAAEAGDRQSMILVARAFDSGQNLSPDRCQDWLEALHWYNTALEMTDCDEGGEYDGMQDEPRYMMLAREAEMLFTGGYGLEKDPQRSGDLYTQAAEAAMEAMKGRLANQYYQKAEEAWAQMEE

Compound in the experiment: CCN(CC)Cc1ccc2cc(COC(=O)Nc3ccc(C(=O)NO)cc3)ccc2c1 [givinostat]
Description: log2 fold change, soluble protein after heating vs DMSO (PISA); higher = thermal stabilisation; K562 cells, 10 uM, 30 min; active = over 0.2 and 3.5 SD of the protein, either way, in both replicates (recomputed). In outline:
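K562 cells at 2×10^6 cells/mL were treated for 30 min with 10 μM compound, and aliquots were heated for 3 min over 48°C-58°C before pooling. Extraction used PBS with 0.5% NP-40 at 4°C, and soluble protein was the supernatant after 21,000xg for 90 min, measured by TMTpro 16plex LC-MS/MS with channel sums equalised. Thermal stability values, relative to control samples and from duplicates, are log2 fold changes.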
On to EML5 isoform 5 (UniProt Q05BV3), for which the log2 fold change is inactive: -0.038.

Turning to ELP5 isoform 2 (UniProt Q8TE02), the log2 fold change was inactive: -0.035.

As to ENKD1 (UniProt Q9H0I2), the log2 fold change is inactive: 0.116.

In the case of EEF1AKMT2 (UniProt Q5JPI9), the log2 fold change was inactive: 0.052.

As for EIF2AK3 (UniProt Q9NZJ5), the log2 fold change is inactive: 0.027.

As to EPB41L1 (UniProt Q9H4G0), the log2 fold change is inactive: 0.028.

For the target EEF1D isoform 3 (UniProt P29692), the log2 fold change was inactive: -0.236.

Regarding ELOVL7 (UniProt A1L3X0), the log2 fold change was inactive: 0.034.

Consider ENTR1 (UniProt Q96C92), for which the log2 fold change is inactive: 0.062.

EIF2B4 (UniProt Q9UI10): the log2 fold change is inactive: -0.004.

Regarding EIF4E3 (UniProt Q8N5X7), the log2 fold change is inactive: 0.026.

Turning to EFCAB2 (UniProt Q5VUJ9), the log2 fold change is inactive: 0.135.

On to EEF2K (UniProt O00418), for which the log2 fold change was inactive: -0.041.

In the case of EIF4H isoform 2 (UniProt Q15056), the log2 fold change is inactive: -0.196.

The record behind these values is the supplement of paper PMC10849652.
